Measurements published in patent US20140366224A1 (CONSEJO SUPERIOR DE INVESTIGACIONES CIENTIFICAS, published 2014).
Results are given in words; binding and its absence hold for the method and conditions named. For some assays here: Binding seen in cells or lysates may run through a third protein. Some entries that bind do so weakly or less than the wild type. For some assays here: Sequences can lack the tags named with a protein. One block for each binder: values may come before it.

What was measured:
[1] = target: T1, Rpb3 sub-unit from RNA Polymerase II (UniProt Q39211); assay: in vitro pull-down (FIG. 8A)
T1 sequence (looked up): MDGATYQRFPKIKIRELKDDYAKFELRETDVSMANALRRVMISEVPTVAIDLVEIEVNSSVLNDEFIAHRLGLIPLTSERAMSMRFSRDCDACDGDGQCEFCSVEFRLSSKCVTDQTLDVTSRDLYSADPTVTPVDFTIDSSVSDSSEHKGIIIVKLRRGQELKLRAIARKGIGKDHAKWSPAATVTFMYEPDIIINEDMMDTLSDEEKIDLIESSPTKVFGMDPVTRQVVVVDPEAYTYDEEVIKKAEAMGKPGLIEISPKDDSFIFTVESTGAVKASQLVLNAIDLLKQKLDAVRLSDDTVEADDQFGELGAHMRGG

[2] = target: T2, histone acetyl transferase ELO3 (UniProt Q93ZR1); assay: in vitro interaction (FIG. 8G)
T2 sequence (looked up): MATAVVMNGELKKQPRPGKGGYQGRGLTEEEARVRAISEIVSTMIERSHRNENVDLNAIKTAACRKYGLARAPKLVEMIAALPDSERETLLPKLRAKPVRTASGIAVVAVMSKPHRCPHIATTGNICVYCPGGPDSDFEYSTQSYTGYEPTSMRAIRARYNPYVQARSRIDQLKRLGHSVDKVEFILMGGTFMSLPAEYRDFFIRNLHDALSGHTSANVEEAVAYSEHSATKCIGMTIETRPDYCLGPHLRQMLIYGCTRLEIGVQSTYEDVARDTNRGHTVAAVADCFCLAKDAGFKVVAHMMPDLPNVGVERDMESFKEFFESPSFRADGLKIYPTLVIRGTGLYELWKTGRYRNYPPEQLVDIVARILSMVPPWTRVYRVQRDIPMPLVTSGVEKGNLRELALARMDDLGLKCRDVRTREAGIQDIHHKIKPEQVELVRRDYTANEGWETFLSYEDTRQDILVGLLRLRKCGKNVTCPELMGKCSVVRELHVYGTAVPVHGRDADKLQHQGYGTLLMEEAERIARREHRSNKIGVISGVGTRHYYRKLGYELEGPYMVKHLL

[3] = target: T3, Rpb3 sub-unit from RNA Polymerase II fused to split YFP (UniProt Q39211); assay: BiFC, split YFP (FIG. 8B)
T3 sequence (looked up): T1 sequence (looked up)

[4] = target: T4, IYO fused to split YFP (nYFP or cYFP) (Arabidopsis thaliana, UniProt Q8GYU3 1-1465); assay: BiFC context, truncated AtRTR1
T4 construct: BiFC construct expressed in Nicotiana benthamiana leaf epidermal cells; The position of the YFP half varied between combinations, so the order of the parts is not fixed; also called split YFP fused to IYO; not shown: nYFP or cYFP half of split YFP, fused at the N- or C-terminus (different combinations were used)
T4 sequence: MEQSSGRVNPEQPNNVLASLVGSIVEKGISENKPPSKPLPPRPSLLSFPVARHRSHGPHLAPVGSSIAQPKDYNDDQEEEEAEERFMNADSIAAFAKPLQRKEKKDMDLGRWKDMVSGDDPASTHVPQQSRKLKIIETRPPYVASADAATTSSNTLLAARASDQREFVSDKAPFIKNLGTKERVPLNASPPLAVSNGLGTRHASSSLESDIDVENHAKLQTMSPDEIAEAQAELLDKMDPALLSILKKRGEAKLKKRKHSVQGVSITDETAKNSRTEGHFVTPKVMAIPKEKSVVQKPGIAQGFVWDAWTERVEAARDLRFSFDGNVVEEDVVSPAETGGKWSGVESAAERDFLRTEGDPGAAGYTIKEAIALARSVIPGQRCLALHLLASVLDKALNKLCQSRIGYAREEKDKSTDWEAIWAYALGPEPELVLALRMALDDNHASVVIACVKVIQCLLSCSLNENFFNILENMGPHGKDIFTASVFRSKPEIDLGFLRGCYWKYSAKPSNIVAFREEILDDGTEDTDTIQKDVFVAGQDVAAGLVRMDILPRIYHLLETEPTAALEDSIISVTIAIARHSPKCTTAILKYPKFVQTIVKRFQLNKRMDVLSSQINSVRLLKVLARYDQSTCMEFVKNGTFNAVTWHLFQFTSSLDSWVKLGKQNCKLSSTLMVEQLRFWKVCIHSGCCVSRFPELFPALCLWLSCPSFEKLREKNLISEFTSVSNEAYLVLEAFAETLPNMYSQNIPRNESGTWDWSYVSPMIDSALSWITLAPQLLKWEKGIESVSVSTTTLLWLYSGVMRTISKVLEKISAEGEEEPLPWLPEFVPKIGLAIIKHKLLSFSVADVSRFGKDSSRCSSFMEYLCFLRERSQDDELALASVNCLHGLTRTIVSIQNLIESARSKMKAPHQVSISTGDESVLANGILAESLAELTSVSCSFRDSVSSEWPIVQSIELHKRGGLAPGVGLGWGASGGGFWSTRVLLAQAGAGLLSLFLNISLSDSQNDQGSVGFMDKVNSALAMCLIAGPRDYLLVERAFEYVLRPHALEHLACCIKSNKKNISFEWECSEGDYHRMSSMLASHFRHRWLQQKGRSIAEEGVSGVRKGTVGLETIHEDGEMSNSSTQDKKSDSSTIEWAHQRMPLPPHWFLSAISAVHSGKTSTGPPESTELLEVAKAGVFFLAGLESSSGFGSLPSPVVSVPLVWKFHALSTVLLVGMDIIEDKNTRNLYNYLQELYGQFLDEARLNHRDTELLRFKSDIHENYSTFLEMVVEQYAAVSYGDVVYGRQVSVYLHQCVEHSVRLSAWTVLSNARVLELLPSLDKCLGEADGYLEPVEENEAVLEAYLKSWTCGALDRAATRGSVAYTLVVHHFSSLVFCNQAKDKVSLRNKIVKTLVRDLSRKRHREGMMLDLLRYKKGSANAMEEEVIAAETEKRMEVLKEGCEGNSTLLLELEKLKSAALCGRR
Description: Applicants tested for the in vivo interaction between IYO and AtRTR1 through a bimolecular fluorescence complementation assay in epidermal cells from Nicotiana benthamiana leaves.

[5] = target: T4, IYO fused to split YFP (nYFP or cYFP); assay: interaction test with truncated AtRTR1 (method not named in this paragraph)

binding [1]: binds
binding [2]: binds
B1: IYO protein (AtMINIYO, Arabidopsis thaliana MINIYO, At4g38440) (protein)
chain: T4 sequence

binding [3]: binds
B2: IYO fused to split YFP (nYFP or cYFP) (protein, not shown: large carriers)
chain: T4 sequence

binding [4]: binds
binding [5]: binds
B3: DUF408-containing N-terminal half of AtRTR1 (protein, not shown: large carriers)
chain: MAKDNEAIAINDAVHKLQLYMLENTTDQNQLFAARKLMSRSDYEDVVTERAIAKLCGYTLCQRFLPSDVSRRGKYRISLKDHKVYDLQETSKFCSAGCLIDSKTFSGSLQEARTLEFDSVKLNEILDLFGDSLEVKGSLDVNKDLDLSKLMIKENFGVRGEELSLEKWMGPSNAVEGYVPFDRSKSSNDSKATTQSNQEKHEMDFTSTVIMPDVNSVSKLPPQTKQASTVVESVDGKGKTVLKEQTVVPPTKKVSRFRREKEKEKKTFGVDGMGCAQEKTTVLPRKILSFCNEIEKDFKNFGFD
